{"source": "patent EP4745157A1", "about": "(Korea Research Institute of Bioscience and Biotechnology, dated 2026)", "binders": {"B1": {"name": "huAb27-9 IgG (antibody, V domains shown)", "VH": "QVQLVQSGAEVKKPGASVKVSCKASGYTFTDYEMHWVRQAPGQGLEWMGAIDPETGGTAYNQKFKGRVTMTADKSISTAYMELSRLRSDDTAVYYCARPYLGYWGQGTLVTVSS", "VL": "EIVLTQSPGTLSLSPGERATLSCRSSQSLVHSNGNTYLHWYQQKPGQAPRLLIYKVSNRFSGIPDRFSGSGSGTDFTLTISRLEPEDFAVYYCFQGSHIPLTFGQGTKVEIKR", "notes": "IgG1 format; also called Hz#9 IgG; Hz #9 IgG"}, "B2": {"name": "Hz#9 H(G)L(GG) (antibody, V domains shown, not shown: a dimerising Fc or GST)", "VH": "B1 VH", "VL": "B1 VL with R113G"}, "B3": {"name": "2-1 IgG (antibody, V domains shown)", "VH": "B1 VH with A59F, Y60V, N61V, Q62S", "VL": "EIVLTQSPGTLSLSPGERATLSCRSSQSLVHSNGNTYLHWYQQKPGQAPRLLIYKVSNRFSGIPDRFSGSGSGTDFTLTISRLEPEDFAVYYCFQGSHIPLTFGQGTKVEIK"}, "B4": {"name": "1-5 IgG (antibody, V domains shown)", "VH": "B1 VH with A59F, Y60V, N61K, Q62R", "VL": "B3 VL", "notes": "IgG; also called T1-5"}, "B5": {"name": "S43 IgG (antibody, V domains shown)", "VH": "B1 VH with T28R, E54A, T55F", "VL": "B3 VL", "notes": "IgG1; also called huAb27-9_M74; M74"}, "B6": {"name": "huAb27-9_E01 IgG (antibody, V domains shown)", "VH": "B1 VH with Q1E, E10D, K13E, R67W, A97T", "VL": "B1 VL with T10M, S32R"}, "B7": {"name": "EO1 H(G)L(GG) (antibody, V domains shown, not shown: a dimerising Fc or GST)", "VH": "B1 VH with Q1E, E10D, K13E, R67W, A97T", "VL": "B1 VL with T10M, S32R, R113G"}, "B8": {"name": "EO1 (G2) (antibody, V domains shown, not shown: a dimerising Fc or GST)", "VH": "B1 VH with Q1E, E10D, K13E, R67W, A97T", "VL": "B1 VL with T10M, S32R, R113G"}, "B9": {"name": "EO1 (G) (antibody, V domains shown, not shown: a dimerising Fc or GST)", "VH": "B1 VH with Q1E, E10D, K13E, R67W, A97T", "VL": "B1 VL with T10M, S32R, R113G"}, "B10": {"name": "EO1 H(GG)L(G) (antibody, V domains shown, not shown: a dimerising Fc or GST)", "VH": "B1 VH with Q1E, E10D, K13E, R67W, A97T", "VL": "B1 VL with T10M, S32R, R113G"}, "B11": {"name": "S43 (G2) (antibody, V domains shown, not shown: a dimerising Fc or GST)", "VH": "B1 VH with T28R, E54A, T55F", "VL": "B1 VL with R113G"}, "B12": {"name": "S43 H(G)L(GG) (antibody, V domains shown, not shown: a dimerising Fc or GST)", "VH": "B1 VH with T28R, E54A, T55F", "VL": "B1 VL with R113G"}, "B13": {"name": "S43 (G) (antibody, V domains shown, not shown: a dimerising Fc or GST)", "VH": "B1 VH with T28R, E54A, T55F", "VL": "B1 VL with R113G"}, "B14": {"name": "S43 H(GG)L(G) (antibody, V domains shown, not shown: a dimerising Fc or GST)", "VH": "B1 VH with T28R, E54A, T55F", "VL": "B1 VL with R113G"}, "B15": {"name": "huAb27-9 scFv (WT) (scFv, V domains shown, not shown: a dimerising Fc or GST; small tags and cut ends)", "VH": "B1 VH", "VL": "B3 VL"}, "B16": {"name": "T1-5 clone (Fab library output) (Fab, V domains shown)", "VH": "B1 VH with A59F, Y60V, N61K, Q62R", "VL": "B3 VL"}, "B17": {"name": "T2-1 clone (Fab library output) (Fab, V domains shown)", "VH": "B1 VH with A59F, Y60V, N61V, Q62S", "VL": "B3 VL"}}, "note": "Positions count from the first letter of the chain named. No constants are given. Whether binding was seen depends on the method and setting. Some binding calls cover weakened binding; strength is not graded here. For part of these data: Sequences can lack the tags named with a protein."}
{"target": "T1, TM4SF5 (antigen of SPR/BIACORE/ELISA, construct not stated) (UniProt O14894)", "T1 sequence (looked up)": "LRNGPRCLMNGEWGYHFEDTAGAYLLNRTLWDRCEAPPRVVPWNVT", "test": "BIACORE"}
{"binder": "B1", "binding": "binds"}
{"binder": "B2", "binding": "binds"}
{"binder": "B3", "binding": "binds"}
{"binder": "B4", "binding": "binds"}
{"binder": "B5", "binding": "binds"}
{"binder": "B6", "binding": "binds"}
{"target": "TM4SF5 (cell-surface target on Tp cells) (UniProt O14894)", "test": "IF on cells"}
{"binder": "B1", "binding": "binds"}
{"binder": "B2", "binding": "binds"}
{"binder": "B3", "binding": "binds"}
{"binder": "B4", "binding": "binds"}
{"binder": "B5", "binding": "binds"}
{"binder": "B6", "binding": "binds"}
{"binder": "B7", "binding": "binds"}
{"binder": "B8", "binding": "binds"}
{"binder": "B9", "binding": "binds"}
{"binder": "B10", "binding": "binds"}
{"binder": "B11", "binding": "binds"}
{"binder": "B12", "binding": "binds"}
{"binder": "B13", "binding": "binds"}
{"binder": "B14", "binding": "binds"}
{"target": "TM4SF5 (cell-surface target on Tp cells) (UniProt O14894)", "test": "FACS on cells"}
{"binder": "B1", "binding": "binds"}
{"binder": "B2", "binding": "binds"}
{"binder": "B3", "binding": "binds"}
{"binder": "B4", "binding": "binds"}
{"binder": "B5", "binding": "binds"}
{"binder": "B6", "binding": "binds"}
{"binder": "B7", "binding": "binds"}
{"binder": "B11", "binding": "binds"}
{"target": "TM4SF5 (cell-surface target on Tp cells) (UniProt O14894)", "test": "FACS on Cp and Tp cells"}
{"binder": "B1", "binding": "binds"}
{"binder": "B2", "binding": "binds"}
{"binder": "B3", "binding": "binds"}
{"binder": "B4", "binding": "binds"}
{"binder": "B5", "binding": "binds"}
{"binder": "B6", "binding": "binds"}
{"target": "T1, TM4SF5 (antigen of SPR/BIACORE/ELISA, construct not stated)", "test": "ELISA with purified scFv"}
{"binder": "B15", "binding": "binds"}
{"target": "TM4SF5 (cell-surface target on Tp cells) (UniProt O14894)", "test": "summary of BIACORE, FACS and IF"}
{"binder": "B2", "binding": "binds"}
{"binder": "B5", "binding": "binds"}
{"binder": "B7", "binding": "binds"}
{"target": "TM4SF5 (cell-surface target on Tp cells) (UniProt O14894)", "test": "summary of FACS, IF and BIACORE"}
{"binder": "B3", "binding": "binds"}
{"binder": "B4", "binding": "binds"}
{"target": "T1, TM4SF5 (antigen of SPR/BIACORE/ELISA, construct not stated)", "test": "BIACORE, order of binding affinity"}
{"binder": "B1", "binding": "binds"}
{"binder": "B2", "binding": "binds"}
{"binder": "B5", "binding": "binds"}
{"binder": "B6", "binding": "binds"}
{"target": "TM4SF5 (cell-surface target on Tp cells) (UniProt O14894)", "test": "FACS, cell-surface target-binding ability"}
{"binder": "B1", "binding": "binds"}
{"binder": "B5", "binding": "binds"}
{"binder": "B6", "binding": "binds"}
{"binder": "B7", "binding": "binds"}
{"binder": "B8", "binding": "binds"}
{"binder": "B9", "binding": "binds"}
{"binder": "B10", "binding": "binds"}
{"binder": "B11", "binding": "binds"}
{"binder": "B12", "binding": "binds"}
{"binder": "B13", "binding": "binds"}
{"binder": "B14", "binding": "binds"}
{"target": "TM4SF5 (cell-surface target on Tp cells) (UniProt O14894)", "test": "FACS on Tp cells (internalization experiment)"}
{"binder": "B4", "binding": "binds"}
{"target": "T2, TM4SF5-Fc antigen protein (UniProt O14894)", "T2 sequence (looked up)": "T1 sequence (looked up)", "test": "Biacore, TM4SF5-Fc immobilized directly on the chip"}
{"binder": "B1", "binding": "binds"}
{"target": "T1, TM4SF5 (antigen of SPR/BIACORE/ELISA, construct not stated)", "test": "ELISA normalized to expression levels, library output clones"}
{"binder": "B16", "binding": "binds"}
{"binder": "B17", "binding": "binds"}
{"target": "T3, GST fusion protein (expression host cell: HEK) (UniProt O14894)", "T3 sequence (looked up)": "T1 sequence (looked up)", "test": "anti-human Fc capture method, GST fusion protein (HEK) as analyte"}
{"binder": "B1", "binding": "binds"}
{"target": "T4, GST fusion protein (expression host cell: E. coli) (UniProt O14894)", "T4 sequence (looked up)": "T1 sequence (looked up)", "test": "Biacore, anti-human Fc capture, GST fusion protein (E. coli) as analyte"}
{"binder": "B1", "binding": "binds"}
{"binder": "B5", "binding": "binds"}
{"binder": "B6", "binding": "binds"}
